Test results from patent US20110020437A1 (APIM THERAPEUTICS, published 2011).
These are yes or no findings as the source states them, for the method shown. Some results given as binding are weak or reduced against the parent protein; the word gives no strength.

Chains of the proteins cited; added tags and fusions are not shown.
UniProt P12004: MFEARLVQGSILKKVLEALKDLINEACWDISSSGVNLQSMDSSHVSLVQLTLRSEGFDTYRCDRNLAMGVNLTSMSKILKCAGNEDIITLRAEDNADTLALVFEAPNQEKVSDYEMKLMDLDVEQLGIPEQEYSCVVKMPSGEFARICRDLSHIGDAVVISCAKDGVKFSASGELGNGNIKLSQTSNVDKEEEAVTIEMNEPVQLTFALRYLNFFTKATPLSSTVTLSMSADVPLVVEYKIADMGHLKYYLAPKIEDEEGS

Biological target: T1, proliferating cell nuclear antigen (PCNA) (UniProt P12004 1-261)
T1 construct: Used both for endogenous PCNA of HeLa cell extracts (co-IP, cross-linking) and for the untagged 'PCNA' used as probe in the dot blot; also called endogenous PCNA
Test: dot blot: peptide spots probed with PCNA

B1: pentapeptide RFLVK (peptide)
peptide: RFLVK
  binding: binds
